This test relates to L1210 leukemia ip in BDF1 mice, survival T/C. Nature of the test: NCI In Vivo Anticancer Drug Screen. Data for tumor model L1210 Leukemia (intraperitoneal) in B6D2F1 (BDF1) mice. As to conditions: higher T/C = longer survival.
Setting [1] is: T/C endpoint: mean survival time, dose: 150.0 mg/kg/injection, schedule: Q01DX001 (ip), vehicle: saline.
The mark [2] stands for this setting: T/C endpoint: mean survival time, dose: 300.0 mg/kg/injection, schedule: Q01DX001 (ip), vehicle: saline.
Where [3] appears, read: T/C endpoint: mean survival time, dose: 400.0 mg/kg/injection, schedule: Q01DX001 (ip), vehicle: Klucel (hydroxypropylcellulose) (HPC).
[4] abbreviates: T/C endpoint: mean survival time, dose: 200.0 mg/kg/injection, schedule: Q04DX003 (ip), vehicle: saline.
[5] abbreviates: T/C endpoint: mean survival time, dose: 400.0 mg/kg/injection, schedule: Q04DX003 (ip), vehicle: saline.
Where [6] appears, read: T/C endpoint: mean survival time, dose: 200.0 mg/kg/injection, schedule: Q04DX003 (ip), vehicle: saline with Tween-80.
Where [7] appears, read: T/C endpoint: mean survival time, dose: 400.0 mg/kg/injection, schedule: Q04DX003 (ip), vehicle: saline with Tween-80.
Setting [8] is: T/C endpoint: mean survival time, dose: 100.0 mg/kg/injection, schedule: Q01DX009 (ip), vehicle: saline with Tween-80.

The list shows only some results of the screen, not a fair sample: it gathers tests that were run many times, whatever their T/C, doses with no T/C, and many T/C values between a quarter and a half above the control. Other doses and runs of a compound stand elsewhere. T/C: endpoint of the treated group in % of that of the vehicle group. Some entries give survivors of the animals treated and no T/C: the source holds a T/C of zero for them, seemingly a mark for toxic or unscored doses. Some survivor counts are full or nearly so, which does not show that the dose was tolerated: the source hardly ever lists a survival T/C far under the control, and the zero likely stands for such cases as well. Survivors were counted at the toxicity check, usually on the fifth day, unless a day is given; later deaths do not show. Schedule codes are those of the source, read here as Q, the interval in days (D) or hours (H), X, the number of doses. Some schedule codes hold Z or #, which are not explained here. Some entries hold several experiments; the values are given in rising order. Where survival is the endpoint, this PubChem deposit counts one and a half times the control or more as active, and values a quarter to a half above the control carry no call in these data; other NCI protocols may use other cut-offs. Some T/C values are followed by the survivors on the day toxicity was checked, most often the fifth; without a count, all were alive then.

`c1ccc2c(N=NSc3ncnc4nc[nH]c34)c3ccccc3nc2c1`: where the note is “T/C endpoint: mean survival time, dose: 80.0 mg/kg/injection, schedule: Q01DX001 (ip), vehicle: carboxymethylcellulose (CMC)”, the survivor count is 2 of 4.

As for `CC[N+](C)(CC)CCCNC(c1ccc(OC)cc1)C(Cl)(Cl)Cl` (centres undefined), the survivor count is 1 of 6 (T/C endpoint: mean survival time, dose: 75.0 mg/kg/injection, schedule: Q01DX001 (ip), vehicle: saline); 0 of 6 under setting [1]; 0 of 6 under setting [2].

On to `Cc1c2ccccc2c2ccccc2[n+]1[O-]`, for which, under “T/C endpoint: mean survival time, dose: 400.0 mg/kg/injection, schedule: Q04DX002 (ip), vehicle: saline with Tween-80”, the survivor count is recorded as 1 of 3.

For the compound `O=c1[nH]c(-c2ccccc2N=NN2CCCCC2)nc2ccccc12`, the survivor count (T/C endpoint: mean survival time, dose: 200.0 mg/kg/injection, schedule: Q04DX002 (ip), vehicle: saline with Tween-80) is 3 of 3.

Take `Cc1cc(O)c(O)c(C(C)(C)CC(C)(C)C)c1`: the survivor count was 3 of 6 (T/C endpoint: mean survival time, dose: 100.0 mg/kg/injection, schedule: Q01DX009 (ip), vehicle: saline + alcohol); 0 of 6 (T/C endpoint: mean survival time, dose: 200.0 mg/kg/injection, schedule: Q01DX009 (ip), vehicle: saline + alcohol); 0 of 6 (T/C endpoint: mean survival time, dose: 400.0 mg/kg/injection, schedule: Q01DX009 (ip), vehicle: saline + alcohol).

For `Nc1ccccc1-c1ccccc1`, the survivor count by setting is: under setting [1], 1 of 6; under setting [2], 0 of 6.

Take `O=C(NCc1ccncc1)C(c1ccccc1)c1ccccc1`: for the setting “T/C endpoint: mean survival time, dose: 400.0 mg/kg/injection, schedule: Q04DX002 (ip), vehicle: Klucel (hydroxypropylcellulose) (HPC)”, the survivor count was 3 of 3.

Regarding `COC(=O)c1ccc(N=NN(C)C)cc1`, the T/C by setting is: (T/C endpoint: median survival time, dose: 23.0 mg/kg/injection, schedule: Q01DX009 (ip), vehicle: steroid suspending solution) 135 % of control; (T/C endpoint: median survival time, dose: 39.0 mg/kg/injection, schedule: Q01DX009 (ip), vehicle: steroid suspending solution) 140 % of control; (T/C endpoint: median survival time, dose: 65.0 mg/kg/injection, schedule: Q01DX009 (ip), vehicle: steroid suspending solution) 140 % of control; (T/C endpoint: median survival time, dose: 65.0 mg/kg/injection, schedule: Q04DX003 (ip), vehicle: steroid suspending solution) 130 % of control; (T/C endpoint: median survival time, dose: 108.0 mg/kg/injection, schedule: Q04DX003 (ip), vehicle: steroid suspending solution) 125 % of control; (T/C endpoint: median survival time, dose: 300.0 mg/kg/injection, schedule: Q01DX001 (ip), vehicle: steroid suspending solution) 140 % of control. The survivor count reads like this: (T/C endpoint: median survival time, dose: 500.0 mg/kg/injection, schedule: Q01DX001 (ip), vehicle: steroid suspending solution) 7 of 8; (T/C endpoint: median survival time, dose: 833.0 mg/kg/injection, schedule: Q01DX001 (ip), vehicle: steroid suspending solution) 2 of 8.

For the compound `Nc1[nH]c(=S)nc2c1ncn2C1CCCC1`, under “T/C endpoint: mean survival time, dose: 400.0 mg/kg/injection, schedule: Q01DX001 (ip), vehicle: other”, the survivor count was 6 of 6.

With `O=[N+]([O-])CC1=CCCCC1`, the survivor count runs as follows: (T/C endpoint: mean survival time, dose: 100.0 mg/kg/injection, schedule: Q01DX001 (ip), vehicle: Klucel (hydroxypropylcellulose) (HPC)) 1 of 6; (T/C endpoint: mean survival time, dose: 200.0 mg/kg/injection, schedule: Q01DX001 (ip), vehicle: Klucel (hydroxypropylcellulose) (HPC)) 0 of 6; under setting [3], 0 of 6.

On to `Nc1cc2c(cc1N)-c1ccccc1/C2=N\O`, for which the survivor count (T/C endpoint: mean survival time, dose: 300.0 mg/kg/injection, schedule: Q01DX001 (ip), vehicle: carboxymethylcellulose (CMC)) is listed as 6 of 6.

Turning to `CC[N+](CC)(CCOC(=O)C1C2CC3OC(=O)C1C3C2)Cc1ccccc1` (centres undefined), the survivor count by setting is: under setting [4], 0 of 3; under setting [5], 0 of 3.

As to `CCCCOC(=O)c1ccc(NC(=O)Nc2ccccc2)cc1`, the survivor count is reported as 3 of 6 under setting [6] and 2 of 6 under setting [7].

On to `O=C(Nc1cccc(Cl)c1)c1cc(N=Nc2ccc([N+](=O)[O-])cc2Cl)ccc1O`, for which the survivor count (T/C endpoint: mean survival time, dose: 400.0 mg/kg/injection, schedule: Q04DX003 (ip), vehicle: Klucel (hydroxypropylcellulose) (HPC)) is given as 0 of 6.

Regarding `Cc1cc([N+](=O)[O-])c([N+](=O)[O-])cc1Cl`, the survivor count under setting [3] was 2 of 6.

As to `NN1CCCC1C(=O)O` (centres undefined), the survivor count under setting [2] was 0 of 6.

Regarding `Cc1cccc2c(C)c3cccc[n+]3cc12`, the survivor count (T/C endpoint: mean survival time, dose: 32.0 mg/kg/injection, schedule: Q01DX Z (ip), vehicle: carboxymethylcellulose (CMC)) is recorded as 4 of 6 and the survivor count (T/C endpoint: mean survival time, dose: 64.0 mg/kg/injection, schedule: Q01DX Z (ip), vehicle: carboxymethylcellulose (CMC)) was 0 of 6.

With `CCOC(=O)NP(=O)(N1CC1(C)C)N1CC1(C)C` (centres undefined), the T/C (T/C endpoint: mean survival time, dose: 125.0 mg/kg/injection, schedule: Q01DX010 (ip), vehicle: saline) is 135 % of control. For the same compound, the survivor count (T/C endpoint: mean survival time, dose: 500.0 mg/kg/injection, schedule: Q01DX010 (ip), vehicle: saline) is 2 of 6 and 3 of 6.

`CCCCN=Cc1ccccc1`: the survivor count (T/C endpoint: mean survival time, dose: 400.0 mg/kg/injection, schedule: Q01DX009 (ip), vehicle: saline with Tween-80) is reported as 1 of 6.

Turning to `CCc1cccc(CC)c1N=Cc1ccccc1O`, the survivor count (T/C endpoint: mean survival time, dose: 400.0 mg/kg/injection, schedule: Q01DX009 (ip), vehicle: carboxymethylcellulose (CMC)) is given as 3 of 3.

Consider `CSc1cc(-c2ccccc2)c2ccccc2[n+]1C`, for which the survivor count (T/C endpoint: mean survival time, dose: 50.0 mg/kg/injection, schedule: Q01DX009 (ip), vehicle: saline with Tween-80) was 6 of 6; the survivor count under setting [8] was 0 of 6; the survivor count under setting [6] is recorded as 0 of 6; the survivor count under setting [7] is given as 2 of 6.

For the compound `O=C(O)/C=C/C(=O)Nc1ccccc1-n1cccc1`, where the note is “T/C endpoint: mean survival time, dose: 400.0 mg/kg/injection, schedule: Q01DX009 (ip), vehicle: saline”, the survivor count is 3 of 6.

Turning to `S=C(SSC(=S)N1CCOCC1)N1CCOCC1`, the survivor count reads like this: under setting [3], 1 of 6; under setting [5], 1 of 4.

Turning to `CN(CCO)/N=N/c1nc[nH]c1C(N)=O`, the T/C (T/C endpoint: mean survival time, dose: 200.0 mg/kg/injection, schedule: Q01DX009 (ip), vehicle: carboxymethylcellulose (CMC)) is 148 % of control and the T/C (T/C endpoint: mean survival time, dose: 600.0 mg/kg/injection, schedule: Q01DX009 (ip), vehicle: carboxymethylcellulose (CMC)) is 142 % of control [4 of 6 alive].

In the case of `CSc1c(Cl)c(C(Cl)(Cl)Cl)nc2ccccc12`, the survivor count was 2 of 3 under setting [8] and 0 of 3 (T/C endpoint: mean survival time, dose: 200.0 mg/kg/injection, schedule: Q01DX009 (ip), vehicle: saline with Tween-80).

Take `c1ccc(CSc2ncnc3nc[nH]c23)nc1`: under “T/C endpoint: mean survival time, dose: 200.0 mg/kg/injection, schedule: Q04DX003 (ip), vehicle: saline sonified”, the T/C was 140 % of control.

Turning to `Nc1ccnc(=S)[nH]1`, for the setting “T/C endpoint: mean survival time, dose: 500.0 mg/kg/injection, schedule: Q01DX Z (ip), vehicle: methylcellulose (MC)”, the survivor count was 0 of 6.

Regarding `NS(=O)(=O)c1ccc(N=Nc2nc3[nH]cnc(=S)c3[nH]2)cc1`, the T/C (T/C endpoint: mean survival time, dose: 30.0 mg/kg/injection, schedule: Q01DX009 (ip), vehicle: saline) is 136 % of control [5 of 6 alive]; the T/C (T/C endpoint: mean survival time, dose: 62.5 mg/kg/injection, schedule: Q01DX009 (ip), vehicle: saline) is 136 % of control; the T/C (T/C endpoint: mean survival time, dose: 125.0 mg/kg/injection, schedule: Q01DX009 (ip), vehicle: saline) is 145 % of control [5 of 6 alive]; the T/C (T/C endpoint: mean survival time, dose: 500.0 mg/kg/injection, schedule: Q01DX015 (ip), vehicle: saline) was 134 % of control. For the same compound, for the setting “T/C endpoint: mean survival time, dose: 500.0 mg/kg/injection, schedule: Q01DX009 (ip), vehicle: saline”, the survivor count was 4 of 6.

Take `CNC(=S)n1cnc(N)n1`: the survivor count (T/C endpoint: mean survival time, dose: 400.0 mg/kg/injection, schedule: Q01DX001 (ip), vehicle: saline) is recorded as 0 of 4.

`CC(CNN=C(N)N)NN=C(N)N` (centres undefined): the survivor count (T/C endpoint: mean survival time, dose: 240.0 mg/kg/injection, schedule: Q01DX Z (ip), vehicle: saline) is recorded as 2 of 6.

As for `C[P+]1(c2ccccc2)CCc2[nH]c3ccccc3c2C1` (centres undefined), the survivor count by setting is: (T/C endpoint: mean survival time, dose: 100.0 mg/kg/injection, schedule: Q04DX003 (ip), vehicle: saline with Tween-80) 1 of 6; under setting [6], 0 of 6; under setting [7], 0 of 6.

For `C=C(Br)CNC(=O)C(F)(F)F`, the survivor count by setting is: (T/C endpoint: mean survival time, dose: 100.0 mg/kg/injection, schedule: Q04DX003 (ip), vehicle: saline) 0 of 6; under setting [4], 0 of 6; under setting [5], 0 of 6.

The values above are taken from PubChem BioAssay AID248 (DTP/NCI, 2004).
